Some of these results come from one statement about several compounds together.
System: Bacillus spores
Format: cell-based
Conditions: resazurin assay

Substance	surfactant concentration at which individually inhibitory
cocoamidopropyl betaine [CAPB]	less than 1 g/L
sodium lauryl ether sulfate 2EO [SLES]	less than 1 g/L

Reference: patent US20260078335A1, “MICROBIAL ENHANCED COMPOSITIONS COMPRISING SURFACTANT BLENDS WHICH OVERCOME ANTAGONISTIC SURFACTANT INCOMPATIBILITY” (Stepan Company, priority 2023, published 2026)
